Results of single-concentration screens

By UniProt entry, the sequences of proteins in these tests, tags left out. Residues count along the entry.
UniProt Q4DA54, 1-478: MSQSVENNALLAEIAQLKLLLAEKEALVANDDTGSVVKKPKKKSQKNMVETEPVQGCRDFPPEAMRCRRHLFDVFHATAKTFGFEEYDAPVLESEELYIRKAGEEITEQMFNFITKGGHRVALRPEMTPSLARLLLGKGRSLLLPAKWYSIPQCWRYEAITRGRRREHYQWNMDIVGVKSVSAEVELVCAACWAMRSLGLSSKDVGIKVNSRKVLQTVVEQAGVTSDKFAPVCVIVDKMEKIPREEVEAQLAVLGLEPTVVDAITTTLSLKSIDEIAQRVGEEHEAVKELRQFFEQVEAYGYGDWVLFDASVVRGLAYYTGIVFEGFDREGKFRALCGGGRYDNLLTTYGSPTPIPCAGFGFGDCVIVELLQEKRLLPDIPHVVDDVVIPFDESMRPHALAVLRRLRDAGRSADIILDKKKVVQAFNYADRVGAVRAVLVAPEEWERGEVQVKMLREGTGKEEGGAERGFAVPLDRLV

From ChEMBL document CHEMBL3988442, “University of Dundee, Small-Polar-MMV Screening Library” (2021).

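Enzyme assay of histidyl-tRNA synthetase; the read-out is not stated. Target: Histidine-tRNA ligase, Trypanosoma cruzi CL Brener (UniProt Q4DA54). Tested at 30 µM. Higher reads as stronger inhibition (inferred: compounds with an IC50 in retests scored well above the rest). Of about 69,000 compounds tested this way, about 31 (0.045%) reached 50% or more in at least one test.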

Values are the deposited “Percent Effect”, in %. How 0% and 100% were set is not recorded. Most values in the screen are low, and negative values occur. Compounds were drawn at random from those tested, without regard to their results.

Result for Cc1nn(C)c(C)c1CCC(=O)N1CC(c2cccnc2)C1 was 1.622%.
Result for Cc1noc(C(C)C)c1C(=O)NCc1cccc(N(C)C)c1 was 2.29%.
Result for Cc1nc(C2CCCN(C(=O)C3=NN(C(C)C)C(=O)CC3)C2)no1 (stereo unspecified) was 1.807%.
Result for CCOc1ccc(NC(C)=O)cc1S(=O)(=O)Nc1nccs1 was 3.627%.
Result for CC(C)Oc1ccc(C(=O)N2CCC(Nc3cccnn3)CC2)cn1 was 5.539%.
Result for NS(=O)(=O)CCCNC(=O)c1cnc(-c2ccsc2)s1 was 15%.
Result for COCCCN1C(=O)CC[C@H]2CN(Cc3ccc4occc4c3)CC[C@H]21 was 0.6494%.
Result for COCc1nc(-c2ccc(S(=O)(=O)N3CCCC3)cc2)cs1 was 6.145%.
Result for CSc1ccccc1NC(=O)C1CN(C(=O)c2ccc3c(c2)OCO3)C1 was 1.212%.
Result for CN(C)CC1CSCCCN1C(=O)c1ccc(=O)[nH]c1 (stereo unspecified) was 5.435%.
Result for O=C1O[C@@H]2CN(c3ncccn3)C[C@@H]2N1CCCc1ccc(F)cc1 was 2.703%.
Result for CN(Cc1cccnc1)[C@@H]1CN(C(=O)c2ccno2)[C@@H]2CCCO[C@H]12 was 5.291%.
Result for O=C(CCCn1cncn1)NC1(c2cccc(Br)c2)CC1 was 2.976%.
Result for Cn1cc(CN2CCc3ncnc(N4CCCC4)c3CC2)cn1 was 4.301%.
Result for O=C(NCc1ccccc1CN1CCC(O)CC1)Nc1cccnc1 was 0.8333%.
Result for CCCNC(=O)Cn1cc(C#N)c(=O)c2cc(Br)ccc21 was 6.897%.
Result for Cc1cc(C)nc(CN(C)C(=O)c2ccccc2C2CCNC2)c1 (stereo unspecified) was 11.17%.
Result for CC(C)NC(=O)Nc1ccc(CNCc2cccc(OC(F)F)c2)cc1 was 4.183%.
Result for O=C(CN1CCCC(Cn2cncn2)C1)NCCC1=CCCCC1 (stereo unspecified) was 8%.
Result for O=C(NCCNC(=O)c1scnc1Cl)c1ccccc1 was -1.132%.
Result for COC(=O)c1cc2c(=O)[nH]c(=O)n(CCc3ccccc3)c2nc1C was 0.578%.
Result for Cc1nc(-c2ccccc2C)n(CC(=O)NC2CCCC2)n1 was -1.149%.
Result for CN1CCCN(CCCNC2CCc3cc4c(cc32)OCCO4)CC1 (stereo unspecified) was 8.333%.
Result for Cc1noc(C(C)C)c1C(=O)NCCCOC(C)C was 2.662%.
Result for CCn1cc(C(=O)n2nc(C)cc2C)c(S(=O)(=O)N2CCCCC2)n1 was 6.878%.
Result for CNc1nc(CNC(=O)Nc2cccc(COCCOC(C)C)c2)cs1 was 11.31%.
Result for Cc1cc(C)cc(N2CC(c3nnc(N)s3)CC2=O)c1 (stereo unspecified) was -36.16%.
Result for Cc1cc(NCc2cccnc2)n2nc(C)cc2n1 was 4.959%.
Result for COc1ccc(OC)c(C(=O)N2CCCCC2Cn2cccn2)c1 (stereo unspecified) was 2.305%.
Result for CCn1nc(C)cc1C(=O)NCc1cc(N(C)C)nc2ccccc12 was -0.4425%.
Result for CC(NS(=O)(=O)N(C)C)c1cccc(-n2cccn2)c1 (stereo unspecified) was 3.922%.
Result for Cc1ccc(N2CCCC3(COCCN(c4ncccn4)C3)C2)nn1 (stereo unspecified) was 14.07%.
Result for Cc1ncsc1C(=O)N(C)Cc1ccsc1 was 5.325%.
Result for CC(COc1ccccc1)NS(C)(=O)=O (stereo unspecified) was 3.333%.
Result for CCc1noc(C(C)N2CCN(Cc3ncc(C(C)(C)C)o3)CC2)n1 (stereo unspecified) was 1.901%.
Result for CN(c1ccc(CNc2ccc(Cl)cn2)cc1)S(C)(=O)=O was 4.972%.
Result for O=S(=O)(C1CC1)N1CCCn2cnc(COc3cccnc3)c2C1 was 7.778%.
Result for CNC(=O)Cc1noc(-c2cc3c(s2)CCC(C)(C)C3)n1 was 5.882%.
Result for Cc1noc(CNC(=O)NCCOc2ccc(Cl)cc2)n1 was 10.16%.
Result for CCOc1ncnc2c1CCN(Cc1cccs1)CC2 was 3.483%.
Result for CC(=O)c1nn(-c2cccc(Cl)c2)c(C)c1C(C)=O was 5.155%.
Result for CCCN1CCN(C(=O)c2cccc(C)n2)[C@H]2CS(=O)(=O)C[C@H]21 was 4.082%.
Result for O=C1N(c2ccc(F)cc2)Cc2nc(=O)n(Cc3cccc(Cl)c3)n21 was 0.5464%.
Result for CCCOCC(=O)N1CCCN(Cc2csc(CC)n2)CC1 was 5.833%.
Result for O=C(c1ccccn1)N1CCC2(CC1)COC(COc1cccnc1)C2 (stereo unspecified) was 2.479%.
Result for N#Cc1cccc(-c2ncnn2CC2(O)CCCCC2)c1 was 7.738%.
Result for CN1CCN(Cc2nnc(C3CCN(CC4CC4)CC3)n2C)CC1 was 1.653%.
Result for O=C(NCCNc1ncccn1)c1ccc(OCc2ccccc2)nc1 was 6.897%.
Result for CSc1ncccc1C(=O)Nc1ccc(Cn2ccccc2=O)cc1 was 4.02%.
Result for Cc1nc(C)n(CC2CCCN2Cc2cc(C)on2)n1 (stereo unspecified) was 1.887%.
Result for CCC(CNC1CCN(C(C)=O)CC1)Oc1cccc(C)c1 (stereo unspecified) was 0.6452%.
Result for Cc1noc([C@@]23CCO[C@@H]2CCN(C(=O)c2cc(C)c(C)s2)C3)n1 was 3.483%.
Result for COc1ccc(F)c(CN2CCCC(O)(CNCc3ccon3)C2=O)c1 (stereo unspecified) was 3.061%.
Result for CCOc1cccc(CNCc2ccc(NC(=O)NC(C)C)cc2)c1 was 5.413%.
Result for COCc1cccc(CNC(=O)c2c(C)noc2C(C)C)c1 was 2.874%.
Result for Cc1cn[nH]c1C1COCCN1Cc1c[nH]cn1 (stereo unspecified) was 2.26%.
Result for CCOC(=O)CNC(=O)NCc1cccn1Cc1ccccc1F was 2.439%.
Result for COCCN1CCC(NCc2cccc(F)c2)C1 (stereo unspecified) was 2.29%.
Result for COc1ccc(CC2CN(C(=O)c3ocnc3C)CCO2)cc1 (stereo unspecified) was -3.627%.

Once more, the final 5:

SMILES	effect
COCc1cccc(CNC(=O)c2c(C)noc2C(C)C)c1	2.874
Cc1cn[nH]c1C1COCCN1Cc1c[nH]cn1 (stereo unspecified)	2.26
CCOC(=O)CNC(=O)NCc1cccn1Cc1ccccc1F	2.439
COCCN1CCC(NCc2cccc(F)c2)C1 (stereo unspecified)	2.29
COc1ccc(CC2CN(C(=O)c3ocnc3C)CCO2)cc1 (stereo unspecified)	-3.627